Taken from: PubChem BioAssay AID1224830 (NIAID, 2016)

Aim: 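Genes whose knock-down alters the TNF-alpha reporter response to LPS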 (primary screen)
System: human THP-1 monocytic leukaemia cells, TNF dual-luciferase reporter clone, PMA-differentiated to macrophage-like cells
Knock-down reagent: siRNA pool against human genes, 50 nM
Duration: LPS for 4 h, given about 3 days after siRNA transfection
Conditions: bacterial LPS (TLR4 ligand), 10 ng/ml
Measured: 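Ratio of firefly to renilla light, scaled to the plate median and expressed as a robust z-score per replicate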
Scale: TNF reporter robust z-score: higher = stronger TNF reporter response to LPS
Call rule: 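Each well counts as active if its z-score is over 2.8 or under -1.5; controls are left without a call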
This is one part, drawn at random, of about 18,000 reagents. About 2,900 of all reagents (16%) count as active. 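Calls are made per well; low scores hint the gene aids the LPS response, high scores that it dampens it.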 Repeated entries: four replicate wells of each siRNA pool. Reagent sequences are not shown.

target gene | TNF reporter robust z-score | Outcome
FANCB (FA complementation group B) | 0.19 | inactive
FANCB (FA complementation group B) | 0.72 | inactive
FANCB (FA complementation group B) | 0.33 | inactive
FANCB (FA complementation group B) | 0.22 | inactive
RHBG (Rh family B glycoprotein) | 1.79 | inactive
RHBG (Rh family B glycoprotein) | 0.83 | inactive
RHBG (Rh family B glycoprotein) | 1.53 | inactive
RHBG (Rh family B glycoprotein) | 0.12 | inactive
FNDC5 (fibronectin type III domain containing 5) | -0.35 | inactive
FNDC5 (fibronectin type III domain containing 5) | -0.13 | inactive
FNDC5 (fibronectin type III domain containing 5) | -0.44 | inactive
FNDC5 (fibronectin type III domain containing 5) | -0.17 | inactive
HERC1 | -0.22 | inactive
HERC1 | -0.51 | inactive
HERC1 | -0.57 | inactive
SPA17 (sperm autoantigenic protein 17) | -0.8 | inactive
SPA17 (sperm autoantigenic protein 17) | -0.63 | inactive
SPA17 (sperm autoantigenic protein 17) | 0.2 | inactive
SPA17 (sperm autoantigenic protein 17) | -0.2 | inactive
PDLIM2 (PDZ and LIM domain 2) | -0.26 | inactive
PDLIM2 (PDZ and LIM domain 2) | -0.14 | inactive
PDLIM2 (PDZ and LIM domain 2) | -0.17 | inactive
PDLIM2 (PDZ and LIM domain 2) | -0.53 | inactive
SSRP1 (structure specific recognition protein 1) | -0.62 | inactive
SSRP1 (structure specific recognition protein 1) | 0.62 | inactive
SSRP1 (structure specific recognition protein 1) | 0.76 | inactive
SSRP1 (structure specific recognition protein 1) | 0.73 | inactive
OTOP1 (otopetrin 1) | -0.62 | inactive
OTOP1 (otopetrin 1) | -0.74 | inactive
OTOP1 (otopetrin 1) | -0.86 | inactive
OTOP1 (otopetrin 1) | 0.01 | inactive
SEMA3D (semaphorin 3D) | -1.31 | inactive
SEMA3D (semaphorin 3D) | -0.46 | inactive
SEMA3D (semaphorin 3D) | -0.12 | inactive
SEMA3D (semaphorin 3D) | 0 | inactive
TMED2 (transmembrane p24 trafficking protein 2) | -0.94 | inactive
TMED2 (transmembrane p24 trafficking protein 2) | 0.15 | inactive
TMED2 (transmembrane p24 trafficking protein 2) | -0.6 | inactive
TMED2 (transmembrane p24 trafficking protein 2) | 0.88 | inactive
CHAF1B (chromatin assembly factor 1 subunit B) | -0.52 | inactive
CHAF1B (chromatin assembly factor 1 subunit B) | -0.01 | inactive
CHAF1B (chromatin assembly factor 1 subunit B) | -1.36 | inactive
CHAF1B (chromatin assembly factor 1 subunit B) | -1.08 | inactive
CRTC1 (CREB regulated transcription coactivator 1) | 0.48 | inactive
CRTC1 (CREB regulated transcription coactivator 1) | 1.62 | inactive
CRTC1 (CREB regulated transcription coactivator 1) | 1.15 | inactive
CRTC1 (CREB regulated transcription coactivator 1) | -0.17 | inactive
CHST9 (carbohydrate sulfotransferase 9) | 0.56 | inactive
CHST9 (carbohydrate sulfotransferase 9) | -0.42 | inactive
CHST9 (carbohydrate sulfotransferase 9) | 0.82 | inactive
CHST9 (carbohydrate sulfotransferase 9) | 1.71 | inactive
TUBGCP3 (tubulin gamma complex component 3) | 1.44 | inactive
TUBGCP3 (tubulin gamma complex component 3) | 0.37 | inactive
TUBGCP3 (tubulin gamma complex component 3) | 0.08 | inactive
TUBGCP3 (tubulin gamma complex component 3) | 0.61 | inactive
TIAL1 (TIA1 cytotoxic granule associated RNA binding protein like 1) | 0.45 | inactive
TIAL1 (TIA1 cytotoxic granule associated RNA binding protein like 1) | 2.08 | inactive
TIAL1 (TIA1 cytotoxic granule associated RNA binding protein like 1) | 1.02 | inactive
TIAL1 (TIA1 cytotoxic granule associated RNA binding protein like 1) | 2.91 | active
VPS26B (VPS26 retromer complex component B) | 0.19 | inactive
VPS26B (VPS26 retromer complex component B) | -1.11 | inactive
VPS26B (VPS26 retromer complex component B) | 0.24 | inactive
VPS26B (VPS26 retromer complex component B) | -0.16 | inactive
ZSCAN22 (zinc finger and SCAN domain containing 22) | 0.88 | inactive
ZSCAN22 (zinc finger and SCAN domain containing 22) | 1.02 | inactive
ZSCAN22 (zinc finger and SCAN domain containing 22) | 0.19 | inactive
ZSCAN22 (zinc finger and SCAN domain containing 22) | -0.17 | inactive
XKR9 (XK related 9) | -0.02 | inactive
XKR9 (XK related 9) | -0.39 | inactive
XKR9 (XK related 9) | 0.85 | inactive
XKR9 (XK related 9) | 1.79 | inactive
BATF2 (basic leucine zipper ATF-like transcription factor 2) | 3.35 | active
BATF2 (basic leucine zipper ATF-like transcription factor 2) | 4.73 | active
BATF2 (basic leucine zipper ATF-like transcription factor 2) | 4.44 | active
BATF2 (basic leucine zipper ATF-like transcription factor 2) | 4.77 | active
